In publication PMC8129110 one finds binding data, which are given here for one molecule.

Results are given in words; binding and its absence hold for the method and conditions named.

Assay [1] has as its target Sla2 ANTH domain K10D/K13D/K14D (S. cerevisiae). Nature of the assay: dynamic light scattering; proteins mixed at 30 µM in presence of 200 µM PIP2, overnight at 4 °C; measured at 25 °C; both purified.
For assay [2] the target is unchanged. In words: condition: 10 µM monomeric proteins, 60 or 200 µM PIP2; native MS; ANTH and ENTH 1:1, 10 µM monomeric proteins, 60 or 200 µM PIP2, 300 mM ammonium acetate, 1 mM DTT, pH 8; both purified.

B1: Ent1 ENTH domain (S. cerevisiae), wild type (domain or fragment, UniProt Q12518 1-154)
chain: MSKQFVRSAKNLVKGYSSTQVLVRNATSNDNHQVSKDSLIELAEKSYDSADFFEIMDMLDKRLNDKGKYWRHIAKALTVIDYLIRFGSENCVLWCRENLYIIKTLKEFRHEDDEGIDQGQIVRVKAKELTALLSDDERLNEERNMNIKGRNRKG
For the molecule B1, the binding result is “no binding (tested: 30 µM proteins, 200 µM PIP2)” in assay [1] and “no binding” in assay [2].
